Like-named read-outs stand apart in the source and are kept apart here. These are yes or no findings as the source states them, for the method shown. Binding seen in cells or lysates may run through a third protein. Some binding calls cover weakened binding; strength is not graded here. Sequences can lack the tags named with a protein. Values belong to the molecule of their own block, whether it stands above or below them.
Columns and labels:
[1] = target: T1, Recombinant flag-CCL16 (human) (UniProt O15467); test: co-IP; Flag-CCL16 recombinant protein added to THP1 cells for 24 h; cells lysed in RIPA buffer with proteinase inhibitors; lysate incubated overnight at 4°C with Flag or IgG antibody, protein A/G beads for 4 h, three washes with RIPA; immunoblot with Flag/CCR1/CCR2/CCR5/CCR8 antibodies; only the target purified
T1 sequence: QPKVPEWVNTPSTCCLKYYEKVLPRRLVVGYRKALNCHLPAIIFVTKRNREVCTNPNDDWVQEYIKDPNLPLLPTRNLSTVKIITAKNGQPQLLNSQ

Amino acid sequences for entries named in this document (tags omitted).
UniProt P51681: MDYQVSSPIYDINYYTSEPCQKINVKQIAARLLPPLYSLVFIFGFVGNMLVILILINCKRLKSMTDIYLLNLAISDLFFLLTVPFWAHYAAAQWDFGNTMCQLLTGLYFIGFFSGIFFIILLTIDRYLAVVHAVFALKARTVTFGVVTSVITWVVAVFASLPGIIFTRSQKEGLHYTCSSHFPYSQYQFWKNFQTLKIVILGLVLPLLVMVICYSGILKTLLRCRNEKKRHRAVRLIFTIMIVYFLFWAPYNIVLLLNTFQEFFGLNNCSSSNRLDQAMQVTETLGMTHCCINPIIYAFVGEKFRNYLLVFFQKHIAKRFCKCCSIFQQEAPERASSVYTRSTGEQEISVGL
UniProt P51685: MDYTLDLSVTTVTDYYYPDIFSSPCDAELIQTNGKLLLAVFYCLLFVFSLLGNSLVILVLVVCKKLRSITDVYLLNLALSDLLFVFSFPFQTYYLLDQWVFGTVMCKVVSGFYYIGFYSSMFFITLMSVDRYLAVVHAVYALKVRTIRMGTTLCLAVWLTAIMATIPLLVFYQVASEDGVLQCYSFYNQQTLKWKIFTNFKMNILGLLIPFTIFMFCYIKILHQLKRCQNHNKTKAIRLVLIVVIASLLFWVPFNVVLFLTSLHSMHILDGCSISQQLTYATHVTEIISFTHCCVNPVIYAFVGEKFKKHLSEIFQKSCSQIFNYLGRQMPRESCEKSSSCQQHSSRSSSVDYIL
UniProt P41597: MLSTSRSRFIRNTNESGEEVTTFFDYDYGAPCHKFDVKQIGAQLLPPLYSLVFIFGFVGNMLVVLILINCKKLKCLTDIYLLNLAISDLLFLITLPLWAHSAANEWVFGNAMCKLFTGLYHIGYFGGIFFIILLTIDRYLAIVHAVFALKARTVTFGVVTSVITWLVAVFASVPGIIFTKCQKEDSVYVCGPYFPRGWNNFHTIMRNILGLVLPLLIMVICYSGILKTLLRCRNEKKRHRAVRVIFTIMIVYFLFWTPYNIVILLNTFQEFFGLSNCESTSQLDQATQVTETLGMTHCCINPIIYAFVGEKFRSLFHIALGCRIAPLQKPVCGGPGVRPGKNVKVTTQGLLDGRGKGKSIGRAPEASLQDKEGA

[2] = target: T1, Recombinant flag-CCL16 (human); test: as above; remark: listed apart in the source

binding [1]: binds weakly
Molecule: CCR5 (from UniProt P51681 1-352) (receptor)

binding [1]: binds weakly
Molecule: CCR8 (from UniProt P51685 1-355) (receptor)

binding [1]: binds weakly
Molecule: CCR2 (from UniProt P41597 1-374) (receptor)

binding [2]: binds
B1: CCR1 (receptor, UniProt P32246 1-355)
chain: METPNTTEDYDTTTEFDYGDATPCQKVNERAFGAQLLPPLYSLVFVIGLVGNILVVLVLVQYKRLKNMTSIYLLNLAISDLLFLFTLPFWIDYKLKDDWVFGDAMCKILSGFYYTGLYSEIFFIILLTIDRYLAIVHAVFALRARTVTFGVITSIIIWALAILASMPGLYFSKTQWEFTHHTCSLHFPHESLREWKLFQALKLNLFGLVLPLLVMIICYTGIIKILLRRPNEKKSKAVRLIFVIMIIFFLFWTPYNLTILISVFQDFLFTHECEQSRHLDLAVQVTEVIAYTHCCVNPVIYAFVGERFRKYLRQLFHRRVAVHLVKWLPFLSVDRLERVSSTSPSTGEHELSAGF
